From publication PMC7819943, “Rice protein-binding microarrays: a tool to detect cis-acting elements near promoter regions in rice”
The list shows a part of the results.

target: T1, OsSMF1 (Oryza sativa, UniProt Q6ZLB0 1-436); experiment: protein-binding microarray (RPBM); PBS, 2% BSA, 51.3 ng/ul salmon testes DNA, 50 uM zinc acetate, 200 nM TF, 25 C, 1 h; high values mean tight binding; conditions: protein: recombinant; tags: N-terminal polyhistidine and DsRed monomer fusion (pET32a); chain copies: 2; label: CyDye5-dUTP incorporated in the synthesized complementary strand; 3' TTTTT single-stranded linker to array surface; dsDNA, one strand shown
T1 sequence: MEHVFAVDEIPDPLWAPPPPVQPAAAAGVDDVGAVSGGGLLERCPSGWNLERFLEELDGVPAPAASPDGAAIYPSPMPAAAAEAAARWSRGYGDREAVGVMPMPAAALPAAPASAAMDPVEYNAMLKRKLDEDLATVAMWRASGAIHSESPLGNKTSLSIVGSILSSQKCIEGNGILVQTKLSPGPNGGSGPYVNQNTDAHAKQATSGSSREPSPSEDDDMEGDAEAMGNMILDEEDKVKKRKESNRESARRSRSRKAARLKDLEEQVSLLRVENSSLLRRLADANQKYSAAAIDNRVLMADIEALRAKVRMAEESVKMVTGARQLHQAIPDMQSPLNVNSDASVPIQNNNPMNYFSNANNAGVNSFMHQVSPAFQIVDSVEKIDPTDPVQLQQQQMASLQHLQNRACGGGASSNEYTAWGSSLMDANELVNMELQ
Method in brief: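 Binding signal is reported as fluorescence intensity per feature (arbitrary units) from an Axon 4000B scanner. Incubation used 200 nM of each Ni–NTA-purified, N-terminally polyhistidine- and DsRed-fused transcription factor from E. coli BL21-CodonPlus on a double-stranded custom Agilent array for 1 h at 25 °C, with 50 µM zinc acetate in the buffer, followed by washing.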

Question: How did the binding signal turn out when “AAATAGTCACACATAAAATACTATTCATATTTTATCATCTCGGAGTCACCTAGTGCAG” was run?
Answer: 13500 fluorescence intensity (a.u.)

Question: With “CCACCAATTTTCGAATTTAGTGTCATCAGTGATTTGTCGCCGGAGTCACCTAGTGCAG” as the sequence, how does the binding signal read?
Answer: 3350 fluorescence intensity (a.u.)

Question: “ACTGAGACAATCTGGAGTGTACGTTGCTTCATCCAATGGTCGGAGTCACCTAGTGCAG” was tested. Which binding signal did it give?
Answer: 26600 fluorescence intensity (a.u.)

Question: “TCATCATCAAGACTGAGTCACTGACACGTGTGCACCTATGCGGAGTCACCTAGTGCAG” was tested. Which binding signal did it give?
Answer: 27900 fluorescence intensity (a.u.)

Question: How did the binding signal turn out when “TGCAAATTTTCAAAATCGACTACCAGTAGATGTTTACTCCCGGAGTCACCTAGTGCAG” was run?
Answer: 14000 fluorescence intensity (a.u.)

Question: With “TGGCAATGATGAACGGCTACTGATATACTCCCTCATATTTCGGAGTCACCTAGTGCAG” as the sequence, how does the binding signal read?
Answer: 24300 fluorescence intensity (a.u.)

Question: “TTTAACTATGAGAATATATAGTACGTGTTGAGACATGAAACGGAGTCACCTAGTGCAG” was tested. Which binding signal did it give?
Answer: 27800 fluorescence intensity (a.u.)

Question: For “GGCTACCCCAAATATTGTACTGGTGTGGTTATGGTGAATACGGAGTCACCTAGTGCAG”, which binding signal is on record?
Answer: 23600 fluorescence intensity (a.u.)

Question: For “GTGGGAGGCGGTGGTGGTGGTGAAGGAGGTGGCCTTGGAGCGGAGTCACCTAGTGCAG”, which binding signal is on record?
Answer: 4290 fluorescence intensity (a.u.)

Question: “GGAGGTAGGTGCGGGAGATTTGCTCAGCGCAAAGAGATGACGGAGTCACCTAGTGCAG” was tested. Which binding signal did it give?
Answer: 3790 fluorescence intensity (a.u.)

Question: “ATATCTAGATGGAGCATATAAATGCACTATGGCGAAAACTCGGAGTCACCTAGTGCAG” was tested. Which binding signal did it give?
Answer: 3220 fluorescence intensity (a.u.)

Question: “GAAAACTCTAAAGCTTCATCATGGGTGCAGACACTCTGCCCGGAGTCACCTAGTGCAG” was tested. Which binding signal did it give?
Answer: 3150 fluorescence intensity (a.u.)

Question: How did the binding signal turn out when “TCCGTCCTCGAGCTCGCCCGCGTGGCGATGCCCTCCCCTACGGAGTCACCTAGTGCAG” was run?
Answer: 3280 fluorescence intensity (a.u.)

Question: Which binding signal does the source give for “GAGCAAGTGTTGACATTGGTTTTGTCGTTGCTTCCCTTCTCGGAGTCACCTAGTGCAG” here?
Answer: 4350 fluorescence intensity (a.u.)

Question: For “TTAACTCGGTCTTCATCCTGTGTGACGCCTACGATACAACCGGAGTCACCTAGTGCAG”, which binding signal is on record?
Answer: 4380 fluorescence intensity (a.u.)

Question: “AATCGGTGAATGTATTGATTGGATTTGCGTGTTCATTGTTCGGAGTCACCTAGTGCAG” was tested. Which binding signal did it give?
Answer: 12500 fluorescence intensity (a.u.)

Question: How did the binding signal turn out when “AGGCGGTCCTTGGAGGACCGTGTCCACGCGTGACCAGCGCCGGAGTCACCTAGTGCAG” was run?
Answer: 4220 fluorescence intensity (a.u.)

Question: Which binding signal does the source give for “CACTCCCCTCGCACTCTCGACTCATTCCAATCCACATCGTCGGAGTCACCTAGTGCAG” here?
Answer: 3350 fluorescence intensity (a.u.)

Question: “TGGGAGGGGAATTTTCGTGAGCAAACCGGGGATTTCTTCGCGGAGTCACCTAGTGCAG” was tested. Which binding signal did it give?
Answer: 3240 fluorescence intensity (a.u.)

Question: With “AATAGTACGTTACCATCCTCCATATCATCGCTGACGCTTCCGGAGTCACCTAGTGCAG” as the sequence, how does the binding signal read?
Answer: 3540 fluorescence intensity (a.u.)

Question: How did the binding signal turn out when “GGTCATTCTTTGCTAAAGAGAAATGATCACTATGAGTCAGCGGAGTCACCTAGTGCAG” was run?
Answer: 4910 fluorescence intensity (a.u.)

Question: Which binding signal does the source give for “ATATGTTTTACCCTGCCTCTATAAATATGGGTCATAGGAGCGGAGTCACCTAGTGCAG” here?
Answer: 3360 fluorescence intensity (a.u.)

Question: How did the binding signal turn out when “AGCTTTTGTACCATCGGGGCAAAGCAGTGGTCTCATACAACGGAGTCACCTAGTGCAG” was run?
Answer: 5490 fluorescence intensity (a.u.)

Question: How did the binding signal turn out when “TTGTTAACTGCTGATGTGTGACCTGACTGTTAAAAGCTGCCGGAGTCACCTAGTGCAG” was run?
Answer: 9170 fluorescence intensity (a.u.)

Question: How did the binding signal turn out when “TTAAACACTCACATAGAAACTTGGTTTCCATCAGCAATGTCGGAGTCACCTAGTGCAG” was run?
Answer: 25000 fluorescence intensity (a.u.)

Question: “ACCCCTCTCCACACTCCTGTCGCTGACGCTGCTGCTCCCGCGGAGTCACCTAGTGCAG” was tested. Which binding signal did it give?
Answer: 3770 fluorescence intensity (a.u.)

Question: How did the binding signal turn out when “TCCTGTCCCTCGTGTTTGTGTCACGTTCGATTCTCCCAAGCGGAGTCACCTAGTGCAG” was run?
Answer: 3420 fluorescence intensity (a.u.)

Question: How did the binding signal turn out when “AATAAATGAGGGAGTTGCTCATCCAAGTTGCTGAATCAAACGGAGTCACCTAGTGCAG” was run?
Answer: 30100 fluorescence intensity (a.u.)

Question: With “AGATGCACTCATAGCATGACACATCAGTGTTAGTAAGAATCGGAGTCACCTAGTGCAG” as the sequence, how does the binding signal read?
Answer: 3890 fluorescence intensity (a.u.)

Question: Which binding signal does the source give for “CGCCGCCTGCCCCTGCGCCTGCAGCCTCTGCGCCTCCTGCCGGAGTCACCTAGTGCAG” here?
Answer: 3560 fluorescence intensity (a.u.)

Question: With “GCAGAGCTAAGAAAGTATGGCACGTCACAGTTGCGATCAGCGGAGTCACCTAGTGCAG” as the sequence, how does the binding signal read?
Answer: 5050 fluorescence intensity (a.u.)

Question: How did the binding signal turn out when “GCCCTCCGCGTCCCGCCGGCGTCGCTGCTCGAGGTCGGCACGGAGTCACCTAGTGCAG” was run?
Answer: 3870 fluorescence intensity (a.u.)

Question: For “TCCCGAACGTTCCATTCAGCACACGTCGACATCGACTTTGCGGAGTCACCTAGTGCAG”, which binding signal is on record?
Answer: 4330 fluorescence intensity (a.u.)

Question: Which binding signal does the source give for “GATGTCCCGGCCGTCCACGTGGCCCGATGGAATGCTGCTCCGGAGTCACCTAGTGCAG” here?
Answer: 17900 fluorescence intensity (a.u.)

Question: “CGCGCTGCTGCTGCTGCTGATGCTGTCGCAGTACACTCCCCGGAGTCACCTAGTGCAG” was tested. Which binding signal did it give?
Answer: 3140 fluorescence intensity (a.u.)

Question: “ATGCTTACCTCATTGCAGCTAGTCCACCATCAATTCCACTCGGAGTCACCTAGTGCAG” was tested. Which binding signal did it give?
Answer: 3750 fluorescence intensity (a.u.)

Question: How did the binding signal turn out when “TTTATGCGGCGTGGACAGTCCCCGTCGCACCGACATGTGGCGGAGTCACCTAGTGCAG” was run?
Answer: 3240 fluorescence intensity (a.u.)

Question: How did the binding signal turn out when “AGCTAGGCAAAAGCGCCGCATCTGACTGCTTCGTCGCTTTCGGAGTCACCTAGTGCAG” was run?
Answer: 3560 fluorescence intensity (a.u.)

Question: Which binding signal does the source give for “TGAATTTATTAAGCCTAATTAATCCGCCATTAGCACGTGTCGGAGTCACCTAGTGCAG” here?
Answer: 3520 fluorescence intensity (a.u.)

Question: With “CTTCAGATACGTGGACAGCAACGTGTGCAAGGACACGTGTCGGAGTCACCTAGTGCAG” as the sequence, how does the binding signal read?
Answer: 13800 fluorescence intensity (a.u.)

Question: With “TTAATGCATACTGACAGCTGTTTATGTGCTTCAAATTTACCGGAGTCACCTAGTGCAG” as the sequence, how does the binding signal read?
Answer: 4700 fluorescence intensity (a.u.)

Question: With “GTACAAGCTATACACGTGGTTTCATGTCTTGGCGCTTTATCGGAGTCACCTAGTGCAG” as the sequence, how does the binding signal read?
Answer: 6570 fluorescence intensity (a.u.)
